According to the supplement of paper PMC4604168 (melanoma cell lines):
The other results are listed elsewhere or left out. Repeats are few or missing, and single values can be far off.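 Imaging used 1,536-well plates; nuclei positive for cleaved PARP by antibody were divided by total DNA-stained nuclei to yield the apoptosis fraction. Doses for screening kept most cells viable, and cell lines differ markedly in resting and induced cleaved-PARP levels.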

Tests used:
Experiment in all cases: cleaved PARP positive nuclei fraction relative to DMSO control; melanoma cells; higher = more apoptosis
Conditions in all cases: library dose: low library concentration; 72 h
[1] = tested on: MZ2-MEL
[2] = tested on: MeWo
[3] = tested on: RPMI7951
[4] = tested on: RVH-421
[5] = tested on: SkMel28
[6] = tested on: SkMel2
[7] = tested on: SkMel30
[8] = tested on: UACC62
[9] = tested on: WM115
[10] = tested on: WM1716
[11] = tested on: WM1745
[12] = tested on: WM3526
[13] = tested on: WM3619
[14] = tested on: WM451Lu

SMILES	cleaved PARP positive nuclei fraction [1] [%]	cleaved PARP positive nuclei fraction [2] [%]	cleaved PARP positive nuclei fraction [3] [%]	cleaved PARP positive nuclei fraction [4] [%]	cleaved PARP positive nuclei fraction [5] [%]	cleaved PARP positive nuclei fraction [6] [%]	cleaved PARP positive nuclei fraction [7] [%]	cleaved PARP positive nuclei fraction [8] [%]	cleaved PARP positive nuclei fraction [9] [%]	cleaved PARP positive nuclei fraction [10] [%]	cleaved PARP positive nuclei fraction [11] [%]	cleaved PARP positive nuclei fraction [12] [%]	cleaved PARP positive nuclei fraction [13] [%]	cleaved PARP positive nuclei fraction [14] [%]
Nc1nc(F)nc2c1ncn2[C@@H]1O[C@H](CO)[C@@H](O)[C@@H]1O [fludarabine] + C=CCNC1=C2C[C@@H](C)C[C@H](OC)[C@H](O)[C@@H](C)/C=C(\C)[C@H](OC(N)=O)[C@@H](OC)/C=C\C=C(/C)C(=O)NC(=CC1=O)C2=O [Tanespimycin] (first compound 0.2 µM, partner dose 0.002 µM)	198	471	160	137	41.8	799	4230	32.7	158	146	104	134	102	560
C=C(c1ccc(C(=O)O)cc1)c1cc2c(cc1C)C(C)(C)CCC2(C)C [Bexarotene] + C=CCNC1=C2C[C@@H](C)C[C@H](OC)[C@H](O)[C@@H](C)/C=C(\C)[C@H](OC(N)=O)[C@@H](OC)/C=C\C=C(/C)C(=O)NC(=CC1=O)C2=O [Tanespimycin] (first compound 2 µM, partner dose 0.002 µM)	145	49.9	57.1	251	103	157	139	46.7	70.3	35.3	89.9	50.6	76.3	75.6
Nc1ccn([C@@H]2O[C@H](CO)[C@@H](O)C2(F)F)c(=O)n1 [gemcitabine] + Nc1ncn([C@H]2C[C@H](O)[C@@H](CO)O2)c(=O)n1 [decitabine] (first compound 0.0004 µM, partner dose 0.1 µM)	61.3	126	72.2	83.3	121	117	115	183	69.3	37	118	182	147	94.4
CN1CCN(c2ccc3nc(-c4c(N)c5c(F)cccc5[nH]c4=O)[nH]c3c2)CC1 [Dovitinib] + C=CCNC1=C2C[C@@H](C)C[C@H](OC)[C@H](O)[C@@H](C)/C=C(\C)[C@H](OC(N)=O)[C@@H](OC)/C=C\C=C(/C)C(=O)NC(=CC1=O)C2=O [Tanespimycin] (first compound 0.1 µM, partner dose 0.002 µM)	86.4	118	72.1	74.9	46.8	54.7	317	133	61.4	156	93.5	147	100	28.5
Nc1ccn([C@@H]2O[C@H](CO)[C@@H](O)C2(F)F)c(=O)n1 [gemcitabine] + Cc1nc(Nc2ncc(C(=O)Nc3c(C)cccc3Cl)s2)cc(N2CCN(CCO)CC2)n1 [dasatanib] (first compound 0.0004 µM, partner dose 0.004 µM)	96.6	87.7	43	119	38.9	175	42.8	73.4	149	83.7	191	16.2	134	150
Nc1nc(F)nc2c1ncn2[C@@H]1O[C@H](CO)[C@@H](O)[C@@H]1O [fludarabine] + Cc1nc(Nc2ncc(C(=O)Nc3c(C)cccc3Cl)s2)cc(N2CCN(CCO)CC2)n1 [dasatanib] (first compound 0.2 µM, partner dose 0.004 µM)	108	2540	185	185	63.8	380	756	89.6	261	178	134	355	92.1	269
O=C(O)c1ccc2c(c1)nc(Nc1cccc(Cl)c1)c1ccncc12 + Cn1nnc2c(C(N)=O)ncn2c1=O [temozolomide] (first compound 0.4 µM, partner dose 2 µM)	155	110	282	78	83.6	52.9	25	132	115	161	95.8	50.7	95.1	480
Cc1cc(Nc2cc(N3CCN(C)CC3)nc(/C=C/c3ccccc3)n2)n[nH]1 + Cn1c(=O)n(-c2ccc(C(C)(C)C#N)cc2)c2c3cc(-c4cnc5ccccc5c4)ccc3ncc21 [NVP-BEZ235] (first compound 0.04 µM, partner dose 0.004 µM)	46.2	108	71.6	125	102	540	87.1	116	62.4	147	111	93.1	97.8	19.7
CS(=O)(=O)CCNCc1ccc(-c2ccc3ncnc(Nc4ccc(OCc5cccc(F)c5)c(Cl)c4)c3c2)o1 [lapatinib] + C=CCNC1=C2C[C@@H](C)C[C@H](OC)[C@H](O)[C@@H](C)/C=C(\C)[C@H](OC(N)=O)[C@@H](OC)/C=C\C=C(/C)C(=O)NC(=CC1=O)C2=O [Tanespimycin] (first compound 0.8 µM, partner dose 0.002 µM)	103	66.9	59.9	84.7	96.8	80.3	112	98.7	72.2	309	683	67.6	68.7	31.7

Record cards (already shown). Values in the order: cleaved PARP positive nuclei fraction [1] [%]	cleaved PARP positive nuclei fraction [2] [%]	cleaved PARP positive nuclei fraction [3] [%]	cleaved PARP positive nuclei fraction [4] [%]	cleaved PARP positive nuclei fraction [5] [%]	cleaved PARP positive nuclei fraction [6] [%]	cleaved PARP positive nuclei fraction [7] [%]	cleaved PARP positive nuclei fraction [8] [%]	cleaved PARP positive nuclei fraction [9] [%]	cleaved PARP positive nuclei fraction [10] [%]	cleaved PARP positive nuclei fraction [11] [%]	cleaved PARP positive nuclei fraction [12] [%]	cleaved PARP positive nuclei fraction [13] [%]	cleaved PARP positive nuclei fraction [14] [%]
C=C(c1ccc(C(=O)O)cc1)c1cc2c(cc1C)C(C)(C)CCC2(C)C [Bexarotene] + C=CCNC1=C2C[C@@H](C)C[C@H](OC)[C@H](O)[C@@H](C)/C=C(\C)[C@H](OC(N)=O)[C@@H](OC)/C=C\C=C(/C)C(=O)NC(=CC1=O)C2=O [Tanespimycin] (first compound 2 µM, partner dose 0.002 µM) as listed: 145	49.9	57.1	251	103	157	139	46.7	70.3	35.3	89.9	50.6	76.3	75.6
CS(=O)(=O)CCNCc1ccc(-c2ccc3ncnc(Nc4ccc(OCc5cccc(F)c5)c(Cl)c4)c3c2)o1 [lapatinib] + C=CCNC1=C2C[C@@H](C)C[C@H](OC)[C@H](O)[C@@H](C)/C=C(\C)[C@H](OC(N)=O)[C@@H](OC)/C=C\C=C(/C)C(=O)NC(=CC1=O)C2=O [Tanespimycin] (first compound 0.8 µM, partner dose 0.002 µM) as listed: 103	66.9	59.9	84.7	96.8	80.3	112	98.7	72.2	309	683	67.6	68.7	31.7
